Test results as given in patent US20250136677A1 (ZOETIS SERVICES, published 2025).
Changes are numbered by the printed parent chain. These are yes or no findings as the source states them, for the method shown. Some entries that bind do so weakly or less than the wild type.

Key:
[1] = target: T1, equine IL-31 protein (Equine_IL31) (equine); experiment: SPR (Biacore), IL-31 surface, single test concentration of antibody (FIG. 4)
T1 construct: Recombinant equine IL-31
T1 chain: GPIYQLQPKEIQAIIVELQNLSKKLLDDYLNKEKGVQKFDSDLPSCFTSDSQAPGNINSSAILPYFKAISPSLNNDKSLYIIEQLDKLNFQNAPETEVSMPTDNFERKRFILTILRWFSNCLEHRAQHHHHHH

[2] = target: T1, equine IL-31 protein (Equine_IL31); experiment: SPR (Biacore), IL-31 surface, single antibody concentration
Experimental: For the indirect ELISA method, antibody binding to wildtype and feline IL-31 15H05 mutant proteins was assessed. All nine canine monoclonal antibodies (ZIL1, ZIL8, ZIL8, ZIL11, ZIL69, ZIL94, ZIL154, ZIL159, and ZIL171) were capable of binding to wildtype feline IL-31 and binding was impacted by mutations in the mAb 15H05 epitope region confirming the correct binding phenotype determined during the initial screening used to identify them. In comparison, the 11E12 antibody bound to the wild-type feline IL-31 and its binding was not impacted by the mutations in the 15H05 epitope region as evidenced by the data in FIG. 4. To confirm binding, biacore analysis was performed using canine, feline, equine, human, feline 15H05 mutant, and feline 11E12 mutant IL-31 proteins as surfaces and a single test concentration of antibody. Similar to ELISA observations, all antibodies tested bound to wildtype feline IL-31. In agreement with the data described above in this section, mouse antibodies 11E12 and 15H05 both bound to canine and feline IL-31 surfaces. Three additional antibodies where shown to have this dual binding property, ZIL69 (partial canine binding), ZIL94, and ZIL159. From this group of nine fully canine antibodies, only ZIL1 and ZIL9 cross-reacted with equine IL-31. […]

[3] = target: T2, wildtype feline IL-31 protein (Feline_IL31_wildtype) (feline); experiment: indirect ELISA, coated IL-31 protein (FIG. 4)
T2 sequence: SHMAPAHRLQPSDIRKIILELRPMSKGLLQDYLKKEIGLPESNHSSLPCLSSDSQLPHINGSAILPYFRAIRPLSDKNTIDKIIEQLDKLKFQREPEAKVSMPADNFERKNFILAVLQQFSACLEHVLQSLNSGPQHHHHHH

[4] = target: T3, mutant feline IL-31 11E12 protein (Feline_IL31_11E12_mutant) (feline); experiment: SPR (Biacore), IL-31 surface, single antibody concentration
T3 sequence: T2 sequence with D81A, I84A

[5] = target: T4, mutant feline IL-31 15H05 protein (Feline_IL31_15H05_mutant) (feline); experiment: as above
T4 sequence: T2 sequence with P103A, D105A

[6] = target: T2, wildtype feline IL-31 protein (Feline_IL31_wildtype) (feline); experiment: as above
[7] = target: T2, wildtype feline IL-31 protein (Feline_IL31_wildtype) (feline); experiment: SPR (Biacore), IL-31 surface, single test concentration of antibody (FIG. 4)

Measured: binding

B1: ZIL1 (recombinant fully canine antibody) (antibody, V domains shown)
VH: EVQLVESGGDLVKPGGSLRLSCVASGFTFSSYGMSWVRQAPGKGLQWVAHINSGGSSTYYADAVKGRFTISRDNAKNTLYLQMNSLRAEDTAVYYCVEVYTTLAAFWTDNFDYWGQGTLVTVSS
VL: QSVLTQPTSVSGSLGQRVTISCSGSTNNIGILAATWYQQLPGKAPKVLVYSDGNRPSGVPDRFSGSKSGNSATLTITGLQAEDEADYYCQSFDTTLDAYVFGSGTQLTVLR
binds: [1] | [2]

B2: ZIL9 (recombinant fully canine antibody) (antibody, V domains shown)
VH: EVQLVESGGDLVKPPGSLRLSCVASGFTFSSYDMTWVRQAPGKGLQWVADVNSGGTGTAYAVAVKGRFTISRDNAKKTLYLQMNSLRAEDTAVYYCAKLGVRDGLSVWGQGTLVTVSS
VL: SSVLTQPPSVSVSLGQTATISCSGESLNEYYTQWFQQKAGQAPVLVIYRDTERPSGIPDRFSGSSSGNTHTLTISGARAEDEADYYCESAVDTGTLVFGGGTHLAVLR
binds: [1] | [2]

B3: ZIL94 (recombinant fully canine antibody) (antibody, V domains shown)
VH: EVQLVDSGGDLVKPGGSLRLSCVASGFTFSTYFMSWVRQAPGRGLQWVALISSDGSGTYYADAVKGRFTISRDNAKNTLYLQMNSLRAEDTAMYYCAIFWRAFNDWGQGTLVTVSS
VL: QTVVIQEPSLSVSPGGTVTLTCGLNSGSVSTSNYPGWYQQTRGRTPRTIIYDTGSRPSGVPNRFSGSISGNKAALTITGAQPEDEADYYCSLYTDSDILVFGGGTHLTVLR
notes: also called CAN-ZIL94
binds: [3] | [4] | [5] | [6] | [7]

B4: ZIL159 (recombinant fully canine antibody) (antibody, V domains shown)
VH: EVQLVESGGDLVKPAGSLRLSCVASGFTFSSYVMTWVRQAPGKGLQWVAGINSEGSRTAYADAVKGRFTISRDNAKNTLYLQIDSLRAEDTAIYYCATGDIVATGTSYWGQGTLVTVSS
VL: SNVLTQPPSVSVSLGQTATISCSGETLNRFYTQWFQQKAGQAPVLVIYKDTERPSGIPDRFSGSSSGNIHTLTISGARAEDEAAYYCKSAVSIDVGVFGGGTHLTVFR
notes: also called CAN-ZIL159
binds: [3] | [6] | [7]
